Values from PubChem BioAssay AID1259254 (NCATS, 2017).

Test: 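Finding genes that stop cells copying their DNA twice in one cycle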 (primary screen)
Cells: human HCT116 colorectal cancer cells
Reagent: single siRNA against human genes
Time to read-out: 3 days
Read-out: 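Nuclei stained with Hoechst and imaged; cell-cycle phase assigned by DNA content; G2 share scaled per plate, non-targeting siRNA 0%, GMNN siRNA 100%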
Direction: G2 robust z-score and G2 cells, % of GMNN control: higher = more G2 cells, more excess DNA replication; raw share of cells in G2: higher = larger share of cells with G2 DNA content
Rule for the call: 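An siRNA counts as active if its G2 robust z-score lies at least 5 MADs above the screen median; here such calls match roughly 38% of GMNN control or more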
Here is an unselected part of about 59,000 reagents tested. In the full data, about 1,550 (2.6%) were called active. 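G2 share is only a proxy for re-replication; each gene was hit by three separate siRNAs, and active genes were retested.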 The raw values are shown without normalisation. Reagents against one gene are numbered here. Not stated in the record: the amount of reagent.

gene | reagent no. | G2 robust z-score | G2 cells, % of GMNN control | raw share of cells in G2 (%) | activity call
SAT1 | 1 | -0.214 | 1.46 | 4.63 | inactive
SAT1 | 2 | -0.963 | -3.8 | 3.67 | inactive
SAT1 | 3 | -0.535 | -0.795 | 4.38 | inactive
HOXA2 | 1 | 3.7 | 29 | 16.7 | inactive
HOXA2 | 2 | 0.958 | 9.7 | 7.76 | inactive
HOXA2 | 3 | -0.606 | -1.3 | 4.57 | inactive
DEAF1 | 1 | 0.511 | 6.56 | 5.96 | inactive
DEAF1 | 2 | 1.2 | 11.4 | 10.7 | inactive
DEAF1 | 3 | -0.316 | 0.745 | 6.77 | inactive
SLC25A5 | 1 | 1.75 | 15.2 | 9.67 | inactive
SLC25A5 | 2 | -0.71 | -2.03 | 4.03 | inactive
SLC25A5 | 3 | 1.76 | 15.3 | 10.5 | inactive
ITGAD | 1 | -0.804 | -2.69 | 4.66 | inactive
ITGAD | 2 | 4.2 | 32.5 | 16.8 | inactive
ITGAD | 3 | 1.29 | 12 | 8.62 | inactive
SRSF7 | 1 | 2.29 | 19.1 | 11.1 | inactive
SRSF7 | 2 | 0.327 | 5.27 | 5.7 | inactive
SRSF7 | 3 | 1.57 | 14 | 10.4 | inactive
CPQ | 1 | 0.99 | 9.93 | 9.02 | inactive
CPQ | 2 | -0.46 | -0.271 | 4.81 | inactive
CPQ | 3 | -0.576 | -1.08 | 3.51 | inactive
NPR3 | 1 | 0.269 | 4.86 | 6.72 | inactive
NPR3 | 2 | -0.504 | -0.579 | 2.54 | inactive
NPR3 | 3 | 2.07 | 17.5 | 12.2 | inactive
NPR3 | 4 | 0.334 | 5.32 | 6.99 | inactive
NPR3 | 5 | -0.456 | -0.243 | 5.11 | inactive
NPR3 | 6 | 1.05 | 10.3 | 6.72 | inactive
GGPS1 | 1 | -0.451 | -0.203 | 5.13 | inactive
GGPS1 | 2 | -0.569 | -1.04 | 4.33 | inactive
GGPS1 | 3 | 0.81 | 8.67 | 6.16 | inactive
CRB1 | 1 | -0.432 | -0.0695 | 6.34 | inactive
CRB1 | 2 | -0.822 | -2.82 | 3.21 | inactive
CRB1 | 3 | -0.504 | -0.578 | 3.67 | inactive
DENND1C | 1 | 0.75 | 8.24 | 7.87 | inactive
DENND1C | 2 | -0.671 | -1.75 | 3.54 | inactive
DENND1C | 3 | 0.764 | 8.34 | 4.66 | inactive
SLC13A5 | 1 | 3.78 | 29.6 | 15.1 | inactive
SLC13A5 | 2 | 1.81 | 15.7 | 11.1 | inactive
SLC13A5 | 3 | 0.134 | 3.91 | 7.59 | inactive
RHBDD1 | 1 | -0.587 | -1.16 | 5.11 | inactive
RHBDD1 | 2 | -0.914 | -3.46 | 3.34 | inactive
RHBDD1 | 3 | -1.08 | -4.66 | 2.53 | inactive
ZDHHC16 | 1 | -0.355 | 0.47 | 5.63 | inactive
ZDHHC16 | 2 | 0.69 | 7.82 | 7.03 | inactive
ZDHHC16 | 3 | -0.886 | -3.26 | 3.58 | inactive
WDFY3 | 1 | 0.14 | 3.95 | 7.95 | inactive
WDFY3 | 2 | 0.248 | 4.71 | 5.48 | inactive
WDFY3 | 3 | 0.199 | 4.37 | 5.62 | inactive
FGF1 | 1 | 3.69 | 28.9 | 15.7 | inactive
FGF1 | 2 | -1.18 | -5.36 | 1.75 | inactive
FGF1 | 3 | 1.09 | 10.7 | 9.31 | inactive
MYH3 | 1 | 1.26 | 11.8 | 9.93 | inactive
MYH3 | 2 | -0.483 | -0.433 | 3.05 | inactive
MYH3 | 3 | -0.333 | 0.626 | 5.72 | inactive
MRAP | 1 | 1.51 | 13.6 | 7.33 | inactive
MRAP | 2 | 0.0377 | 3.23 | 5.62 | inactive
MRAP | 3 | -0.35 | 0.504 | 4.7 | inactive
BMP2KL | 1 | 4.62 | 35.5 | 16.2 | inactive
BMP2KL | 2 | -0.00179 | 2.95 | 4.55 | inactive
BMP2KL | 3 | 0.33 | 5.29 | 6.32 | inactive
CYP46A1 | 1 | 2 | 17.1 | 9.36 | inactive
CYP46A1 | 2 | 3.57 | 28.1 | 17.6 | inactive
CYP46A1 | 3 | 0.634 | 7.43 | 8.92 | inactive
NAIP | 1 | 0.696 | 7.86 | 6.75 | inactive
NAIP | 2 | -0.374 | 0.333 | 3.3 | inactive
NAIP | 3 | -0.363 | 0.412 | 2.9 | inactive
NAIP | 4 | 2.34 | 19.4 | 13.2 | inactive
NAIP | 5 | 0.44 | 6.06 | 7.7 | inactive
NAIP | 6 | -0.372 | 0.353 | 3.31 | inactive

Copied from above, 11 entries:
gene | reagent no. | G2 robust z-score | G2 cells, % of GMNN control | raw share of cells in G2 (%) | activity call
DENND1C | 2 | -0.671 | -1.75 | 3.54 | inactive
DENND1C | 3 | 0.764 | 8.34 | 4.66 | inactive
SLC13A5 | 1 | 3.78 | 29.6 | 15.1 | inactive
SLC13A5 | 2 | 1.81 | 15.7 | 11.1 | inactive
SLC13A5 | 3 | 0.134 | 3.91 | 7.59 | inactive
RHBDD1 | 1 | -0.587 | -1.16 | 5.11 | inactive
RHBDD1 | 2 | -0.914 | -3.46 | 3.34 | inactive
RHBDD1 | 3 | -1.08 | -4.66 | 2.53 | inactive
ZDHHC16 | 1 | -0.355 | 0.47 | 5.63 | inactive
ZDHHC16 | 2 | 0.69 | 7.82 | 7.03 | inactive
ZDHHC16 | 3 | -0.886 | -3.26 | 3.58 | inactive
